Results are given in words; binding and its absence hold for the method and conditions named. Binding seen in cells or lysates may run through a third protein. Some entries that bind do so weakly or less than the wild type. One block for each binder: values may come before it.
Key:
[1] = target: STAT3 (human (endogenous in RKO)), P40763; assay: co-IP; RKO cells treated with (+) or without (-) cynaropicrin for 24 h; total cell protein incubated with STAT3 antibody or STAT4 antibody at 4°C overnight, adsorbed with agarose beads; Western blotting; conditions: remark: other sources report otherwise
[2] = target: STAT3 (human (endogenous in RKO)) (UniProt P40763); assay: as above
[3] = target: STAT3 (human (endogenous in RKO)) (UniProt P40763); assay: condition: only cells treated with cynaropicrin for 24 h; co-IP; RKO cells treated with cynaropicrin for 24 h; total cell protein precipitated with STAT3 antibody; Western blotting

Protein sequences, listed by entry. Tags and fused reporters are not part of them.
UniProt P40763: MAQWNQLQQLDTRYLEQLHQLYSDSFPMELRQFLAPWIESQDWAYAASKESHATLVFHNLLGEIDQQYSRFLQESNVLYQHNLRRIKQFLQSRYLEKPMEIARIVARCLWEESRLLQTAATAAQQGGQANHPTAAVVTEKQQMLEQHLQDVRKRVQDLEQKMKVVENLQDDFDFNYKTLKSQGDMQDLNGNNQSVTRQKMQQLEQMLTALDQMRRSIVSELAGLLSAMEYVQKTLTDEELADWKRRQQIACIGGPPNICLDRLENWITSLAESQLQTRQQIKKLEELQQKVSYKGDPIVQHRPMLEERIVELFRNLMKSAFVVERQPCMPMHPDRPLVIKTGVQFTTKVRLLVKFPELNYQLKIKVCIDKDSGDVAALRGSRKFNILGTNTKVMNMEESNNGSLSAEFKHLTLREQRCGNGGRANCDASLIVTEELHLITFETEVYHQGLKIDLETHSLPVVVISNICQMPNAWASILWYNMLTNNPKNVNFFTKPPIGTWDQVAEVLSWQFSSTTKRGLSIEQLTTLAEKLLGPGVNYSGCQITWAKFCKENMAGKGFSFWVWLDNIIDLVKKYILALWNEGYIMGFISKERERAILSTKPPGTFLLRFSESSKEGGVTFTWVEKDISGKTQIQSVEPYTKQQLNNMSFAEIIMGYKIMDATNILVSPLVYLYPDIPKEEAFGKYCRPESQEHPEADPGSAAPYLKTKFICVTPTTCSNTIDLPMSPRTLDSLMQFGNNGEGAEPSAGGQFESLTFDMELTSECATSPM

binding [1]: binds
B1: STAT4, Q14765 1-748 (protein)
chain: MSQWNQVQQLEIKFLEQVDQFYDDNFPMEIRHLLAQWIENQDWEAASNNETMATILLQNLLIQLDEQLGRVSKEKNLLLIHNLKRIRKVLQGKFHGNPMHVAVVISNCLREERRILAAANMPVQGPLEKSLQSSSVSERQRNVEHKVAAIKNSVQMTEQDTKYLEDLQDEFDYRYKTIQTMDQSDKNSAMVNQEVLTLQEMLNSLDFKRKEALSKMTQIIHETDLLMNTMLIEELQDWKRRQQIACIGGPLHNGLDQLQNCFTLLAESLFQLRRQLEKLEEQSTKMTYEGDPIPMQRTHMLERVTFLIYNLFKNSFVVERQPCMPTHPQRPLVLKTLIQFTVKLRLLIKLPELNYQVKVKASIDKNVSTLSNRRFVLCGTNVKAMSIEESSNGSLSVEFRHLQPKEMKSSAGGKGNEGCHMVTEELHSITFETQICLYGLTIDLETSSLPVVMISNVSQLPNAWASIIWYNVSTNDSQNLVFFNNPPPATLSQLLEVMSWQFSSYVGRGLNSDQLHMLAEKLTVQSSYSDGHLTWAKFCKEHLPGKSFTFWTWLEAILDLIKKHILPLWIDGYVMGFVSKEKERLLLKDKMPGTFLLRFSESHLGGITFTWVDHSESGEVRFHSVEPYNKGRLSALPFADILRDYKVIMAENIPENPLKYLYPDIPKDKAFGKHYSSQPCEVSRPTERGDKGYVPSVFIPISTIRSDSTEPHSPSDLLPMSPSVYAVLRENLSPTTIETAMKSPYSAE

binding [2]: binds | binding [3]: no binding
B2: leukemia inhibitory factor receptor (receptor, UniProt P42702 45-1097)
chain: QKKGAPHDLKCVTNNLQVWNCSWKAPSGTGRGTDYEVCIENRSRSCYQLEKTSIKIPALSHGDYEITINSLHDFGSSTSKFTLNEQNVSLIPDTPEILNLSADFSTSTLYLKWNDRGSVFPHRSNVIWEIKVLRKESMELVKLVTHNTTLNGKDTLHHWSWASDMPLECAIHFVEIRCYIDNLHFSGLEEWSDWSPVKNISWIPDSQTKVFPQDKVILVGSDITFCCVSQEKVLSALIGHTNCPLIHLDGENVAIKIRNISVSASSGTNVVFTTEDNIFGTVIFAGYPPDTPQQLNCETHDLKEIICSWNPGRVTALVGPRATSYTLVESFSGKYVRLKRAEAPTNESYQLLFQMLPNQEIYNFTLNAHNPLGRSQSTILVNITEKVYPHTPTSFKVKDINSTAVKLSWHLPGNFAKINFLCEIEIKKSNSVQEQRNVTIKGVENSSYLVALDKLNPYTLYTFRIRCSTETFWKWSKWSNKKQHLTTEASPSKGPDTWREWSSDGKNLIIYWKPLPINEANGKILSYNVSCSSDEETQSLSEIPDPQHKAEIRLDKNDYIISVVAKNSVGSSPPSKIASMEIPNDDLKIEQVVGMGKGILLTWHYDPNMTCDYVIKWCNSSRSEPCLMDWRKVPSNSTETVIESDEFRPGIRYNFFLYGCRNQGYQLLRSMIGYIEELAPIVAPNFTVEDTSADSILVKWEDIPVEELRGFLRGYLFYFGKGERDTSKMRVLESGRSDIKVKNITDISQKTLRIADLQGKTSYHLVLRAYTDGGVGPEKSMYVVTKENSVGLIIAILIPVAVAVIVGVVTSILCYRKREWIKETFYPDIPNPENCKALQFQKSVCEGSSALKTLEMNPCTPNNVEVLETRSAFPKIEDTEIISPVAERPEDRSDAEPENHVVVSYCPPIIEEEIPNPAADEAGGTAQVIYIDVQSMYQPQAKPEEEQENDPVGGAGYKPQMHLPINSTVEDIAAEEDLDKTAGYRPQANVNTWNLVSPDSPRSIDSNSEIVSFGSPCSINSRQFLIPPKDEDSPKSNGGGWSFTNFFQNKPND

Source: PMC7829511
